Our source for the binding values is publication doi:10.1101/2020.04.07.029496 (bioRxiv, 2020).

Assay in all cases: SEC
The target in assay [1] is T1, S. cerevisiae Tip20 (S. cerevisiae) (UniProt P33891).
T1 sequence: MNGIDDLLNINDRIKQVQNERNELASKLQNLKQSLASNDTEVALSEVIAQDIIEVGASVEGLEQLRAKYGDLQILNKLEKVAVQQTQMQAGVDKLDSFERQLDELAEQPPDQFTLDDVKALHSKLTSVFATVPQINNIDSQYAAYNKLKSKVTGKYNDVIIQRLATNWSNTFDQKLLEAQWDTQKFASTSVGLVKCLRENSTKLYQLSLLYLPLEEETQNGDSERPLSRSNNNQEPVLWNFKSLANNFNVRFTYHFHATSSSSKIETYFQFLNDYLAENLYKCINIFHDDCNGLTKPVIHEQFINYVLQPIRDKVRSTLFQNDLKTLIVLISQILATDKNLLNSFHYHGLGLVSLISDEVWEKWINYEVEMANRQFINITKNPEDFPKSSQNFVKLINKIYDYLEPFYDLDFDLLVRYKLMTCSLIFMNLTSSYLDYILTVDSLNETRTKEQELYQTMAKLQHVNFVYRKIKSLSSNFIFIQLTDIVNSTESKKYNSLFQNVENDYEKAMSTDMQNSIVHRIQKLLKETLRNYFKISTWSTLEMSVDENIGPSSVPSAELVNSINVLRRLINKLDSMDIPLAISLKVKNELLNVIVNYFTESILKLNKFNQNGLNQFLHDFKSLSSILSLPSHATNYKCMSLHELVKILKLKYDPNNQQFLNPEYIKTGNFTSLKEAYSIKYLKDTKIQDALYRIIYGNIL

Assay [2] deals with T2, S. cerevisiae Tip20_(I481D,L585D) (S. cerevisiae, UniProt P33891 1-701, I481D | L585D).
T2 sequence: T1 sequence with I481D, L585D

Assay [3] concerns the target T3, S. cerevisiae Tip20_(L585D) (S. cerevisiae) (UniProt P33891).
T3 sequence: T1 sequence with L585D

Assay [4] concerns the target T4, S. cerevisiae Tip20 Ile-481 to aspartate (S. cerevisiae) (UniProt P33891).
T4 sequence: T1 sequence with I481D

Residue numbers refer to the chain shown, from its start. No constants are given. Whether binding was seen depends on the method and setting. Binding calls can cover weak binding; strength is not graded here.

In the case of “S. cerevisiae MBP-Sec20NTD Val-82 to aspartate (domain or fragment)”, the binding entry in assay [1] is recorded as “binds”.

As for “S. cerevisiae MBP-Sec20NTD Leu149 to aspartate (domain or fragment)”, in assay [1], the binding result was “binds”.

Take “S. cerevisiae MBP-Sec20NTD (domain or fragment)”: the binding entry in assay [2], in assay [3], in assay [4] and in assay [1] was “binds” each time.

Turning to “S. cerevisiae MBP-Sec20NTD V82D/L149D (domain or fragment)”, the binding result in assay [1] is “binds”.
